Data reported in PMC3629710.
These are yes or no findings as the source states them, for the method shown. A result given as binding can be weak or reduced; the word gives no strength.

Protein sequences, listed by entry. Tags and fused reporters are not part of them. Lines headed by an entry give the natural chain unless they say otherwise; changes in a name come on top. Residues count along the entry.
UniProt Q06187, residues 214-274: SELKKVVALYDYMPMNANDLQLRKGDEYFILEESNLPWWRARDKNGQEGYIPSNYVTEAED
UniProt P42680, residues 179-239: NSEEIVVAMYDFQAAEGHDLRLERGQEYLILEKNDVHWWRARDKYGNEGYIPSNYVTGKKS
UniProt P52735: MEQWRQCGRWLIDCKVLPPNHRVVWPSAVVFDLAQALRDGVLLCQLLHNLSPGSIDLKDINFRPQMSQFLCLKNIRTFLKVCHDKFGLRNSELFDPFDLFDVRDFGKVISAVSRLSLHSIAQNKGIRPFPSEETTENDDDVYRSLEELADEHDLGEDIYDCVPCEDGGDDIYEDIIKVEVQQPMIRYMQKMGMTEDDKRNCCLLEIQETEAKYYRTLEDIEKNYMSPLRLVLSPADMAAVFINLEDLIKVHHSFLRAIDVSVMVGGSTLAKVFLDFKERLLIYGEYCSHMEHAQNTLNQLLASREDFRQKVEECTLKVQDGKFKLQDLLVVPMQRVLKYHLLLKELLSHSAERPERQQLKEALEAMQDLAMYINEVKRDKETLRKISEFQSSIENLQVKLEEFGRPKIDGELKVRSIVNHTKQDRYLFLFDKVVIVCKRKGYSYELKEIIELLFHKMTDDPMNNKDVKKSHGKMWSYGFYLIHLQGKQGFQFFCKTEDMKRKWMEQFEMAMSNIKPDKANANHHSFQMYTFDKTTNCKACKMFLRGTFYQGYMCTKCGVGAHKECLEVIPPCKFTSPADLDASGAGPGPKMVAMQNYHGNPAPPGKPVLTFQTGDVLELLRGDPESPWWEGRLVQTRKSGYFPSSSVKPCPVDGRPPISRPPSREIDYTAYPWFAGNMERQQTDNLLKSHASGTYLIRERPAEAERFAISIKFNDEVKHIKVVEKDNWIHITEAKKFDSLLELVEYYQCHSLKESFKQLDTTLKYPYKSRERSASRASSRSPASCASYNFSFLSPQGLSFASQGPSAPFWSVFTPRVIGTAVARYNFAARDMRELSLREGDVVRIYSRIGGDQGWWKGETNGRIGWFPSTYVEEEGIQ
UniProt Q92968, residues 272-336: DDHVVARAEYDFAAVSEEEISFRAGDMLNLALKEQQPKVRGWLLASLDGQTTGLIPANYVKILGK
UniProt P42684, residues 107-167: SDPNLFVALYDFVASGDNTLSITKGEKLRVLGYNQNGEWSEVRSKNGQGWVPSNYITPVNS
UniProt P56945: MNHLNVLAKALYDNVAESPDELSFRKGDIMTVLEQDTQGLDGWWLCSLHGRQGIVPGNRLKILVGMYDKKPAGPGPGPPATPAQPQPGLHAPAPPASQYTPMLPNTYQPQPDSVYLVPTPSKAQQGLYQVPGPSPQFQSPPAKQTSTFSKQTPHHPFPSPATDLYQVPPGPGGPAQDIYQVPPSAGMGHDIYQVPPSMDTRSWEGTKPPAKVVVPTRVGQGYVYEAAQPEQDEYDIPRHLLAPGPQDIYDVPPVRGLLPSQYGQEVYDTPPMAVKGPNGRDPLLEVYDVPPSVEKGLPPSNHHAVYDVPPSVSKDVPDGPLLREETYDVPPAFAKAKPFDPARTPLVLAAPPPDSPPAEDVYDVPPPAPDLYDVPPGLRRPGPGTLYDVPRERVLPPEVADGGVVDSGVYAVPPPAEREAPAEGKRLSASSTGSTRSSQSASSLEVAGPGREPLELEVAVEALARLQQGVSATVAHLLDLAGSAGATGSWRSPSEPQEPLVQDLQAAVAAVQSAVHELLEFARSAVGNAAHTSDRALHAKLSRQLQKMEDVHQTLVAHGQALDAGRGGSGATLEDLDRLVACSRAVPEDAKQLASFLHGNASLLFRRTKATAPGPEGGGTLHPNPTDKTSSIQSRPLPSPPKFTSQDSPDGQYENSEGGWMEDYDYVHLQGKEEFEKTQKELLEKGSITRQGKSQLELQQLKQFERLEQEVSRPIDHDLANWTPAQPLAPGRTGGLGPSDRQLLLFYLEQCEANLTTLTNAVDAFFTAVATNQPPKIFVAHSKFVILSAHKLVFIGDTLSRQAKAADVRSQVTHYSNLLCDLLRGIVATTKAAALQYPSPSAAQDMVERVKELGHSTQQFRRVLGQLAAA

Experiments:
Assay in all cases: peptide or protein array; Panomics SH3 Domain Arrays I and II: immobilised SH3 domains fused to GST, hybridised with purified N-terminally His-tagged SH3-b domain, detected with peroxidase-conjugated anti-His antibody and ECL; both purified
[1] = target: T1, OSF SH3 domain (SH3 domain array) (UniProt Q92882)
T1 sequence: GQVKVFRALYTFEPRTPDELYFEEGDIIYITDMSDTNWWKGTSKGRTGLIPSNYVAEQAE

[2] = target: T2, PIG2 SH3 domain (SH3 domain array) (UniProt P16885)
T2 sequence: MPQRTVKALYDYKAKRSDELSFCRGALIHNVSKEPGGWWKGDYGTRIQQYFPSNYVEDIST

[3] = target: BTK SH3 domain (SH3 domain array) (UniProt Q06187)
[4] = target: T3, amphiphysin SH3 domain (SH3 domain array) (UniProt P49418)
T3 sequence: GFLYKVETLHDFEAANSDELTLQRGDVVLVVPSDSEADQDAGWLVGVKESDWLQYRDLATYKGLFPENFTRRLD

[5] = target: Tec SH3 domain (SH3 domain array) (UniProt P42680)
[6] = target: T4, M3KA SH3 domain (SH3 domain array) (UniProt Q02779)
T4 sequence: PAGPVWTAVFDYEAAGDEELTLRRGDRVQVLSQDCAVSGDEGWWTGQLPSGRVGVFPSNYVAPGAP

[7] = target: VAV2-D2 SH3 domain (SH3 domain array) (UniProt P52735)
[8] = target: PEXD SH3 domain (SH3 domain array) (UniProt Q92968)
[9] = target: Abl2 (ARG) SH3 domain (SH3 domain arrays) (UniProt P42684)
[10] = target: T5, MLPK3 SH3 domain (SH3 domain array) (UniProt Q16584)
T5 sequence: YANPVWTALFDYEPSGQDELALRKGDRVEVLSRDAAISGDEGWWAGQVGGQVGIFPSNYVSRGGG

- binding [1]: binds
- binding [2]: binds
- binding [3]: binds
- binding [4]: binds weakly
- binding [5]: binds
- binding [6]: binds weakly
- binding [7]: binds
- binding [8]: binds
- binding [9]: binds
- binding [10]: binds
Substance: His-tagged-p130Cas-P2 domain (from UniProt P56945) (domain or fragment)
